Results are given in words; binding and its absence hold for the method and conditions named. In cells and extracts the contact can be indirect. Some binding calls cover weakened binding; strength is not graded here.
T1: native P12 (Plasmodium falciparum (endogenous in 3D7 and CS2 parasites)) (UniProt C6KSX0)
T1 sequence: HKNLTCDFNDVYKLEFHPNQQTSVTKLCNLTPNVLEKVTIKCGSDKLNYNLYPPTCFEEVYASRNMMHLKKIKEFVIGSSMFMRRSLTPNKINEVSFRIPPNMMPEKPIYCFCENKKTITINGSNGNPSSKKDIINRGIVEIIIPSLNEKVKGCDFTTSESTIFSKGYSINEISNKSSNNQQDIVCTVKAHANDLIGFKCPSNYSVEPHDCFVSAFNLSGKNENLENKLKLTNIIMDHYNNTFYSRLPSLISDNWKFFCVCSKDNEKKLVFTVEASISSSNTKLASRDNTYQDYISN

By UniProt entry, the sequences of proteins in these tests, tags left out. Residues count along the entry.
UniProt Q8I1Y0, residues 21-378: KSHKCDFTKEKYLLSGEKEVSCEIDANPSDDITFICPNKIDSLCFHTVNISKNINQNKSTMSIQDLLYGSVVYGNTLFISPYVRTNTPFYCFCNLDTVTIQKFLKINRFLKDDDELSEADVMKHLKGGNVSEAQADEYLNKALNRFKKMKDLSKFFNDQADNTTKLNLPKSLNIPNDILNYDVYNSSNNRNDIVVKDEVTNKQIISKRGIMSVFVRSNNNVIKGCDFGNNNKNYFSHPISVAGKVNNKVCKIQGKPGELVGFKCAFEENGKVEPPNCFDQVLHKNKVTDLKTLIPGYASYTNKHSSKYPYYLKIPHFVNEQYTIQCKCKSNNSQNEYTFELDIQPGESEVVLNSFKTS

B1: native P12 (protein, UniProt C6KSX0 26-322)
chain: T1 sequence

What was measured:
[1] = molecular target: T1, native P12 (Plasmodium falciparum (endogenous in 3D7 and CS2 parasites)); experiment: co-IP; parasite lysate in 1% Triton X-100 in PBS, pre-immune, anti-P12 or anti-P41 rabbit IgG on Protein G agarose, overnight at 4°C; eluted with 0.1 M glycine pH 2.8; western blot
[2] = molecular target: T1, native P12 (Plasmodium falciparum (endogenous in 3D7 and CS2 parasites)); experiment: cross-linking; magnet-purified schizonts (CS2 and CS2 Δp41) crosslinked with DSP (0-500 µM) in PBS, 30 minutes at room temperature; non-reducing SDS-PAGE and western blot with anti-P12 or anti-P41
[3] = molecular target: native P41 (Plasmodium falciparum (endogenous in 3D7 and CS2 parasites)) (UniProt Q8I1Y0); experiment: co-IP; parasite lysate in 1% Triton X-100 in PBS, pre-immune, anti-P12 or anti-P41 rabbit IgG on Protein G agarose, overnight at 4°C; eluted with 0.1 M glycine pH 2.8; western blot

| Molecule | binding [1] | binding [2] | binding [3] |
| --- | --- | --- | --- |
| native P41 (from UniProt Q8I1Y0 21-378) | binds | binds | – |
| B1 | – | no binding | binds |

From paper PMC3407074
